In PubChem BioAssay AID328 (DTP/NCI, 2004) one finds T/C and survivor count data, which are given here for 5 molecules.

The assay has as its system BDF1 mice, P388 leukemia ip, median survival T/C. As to the kind of experiment: NCI In Vivo Anticancer Drug Screen. Data for tumor model P388 Leukemia (intraperitoneal) in B6D2F1 (BDF1) mice. Conditions: T/C endpoint: median survival time, higher T/C = longer survival. The essentials:
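Compound-treated tumour-bearing mice were compared with vehicle-treated controls. Survival was recorded, and the value is the treated-group measurement divided by the control-group measurement (T/C).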

[1] abbreviates: dose: 50.0 mg/kg/injection, schedule: Q04DX003 (ip), vehicle: Klucel (hydroxypropylcellulose) (HPC).
Setting [2] is: dose: 100.0 mg/kg/injection, schedule: Q01DX005 (ip), vehicle: Klucel (hydroxypropylcellulose) (HPC).
Where [3] appears, read: dose: 100.0 mg/kg/injection, schedule: Q01DX009 (ip), vehicle: Klucel (hydroxypropylcellulose) (HPC).
Setting [4] is: dose: 100.0 mg/kg/injection, schedule: Q04DX003 (ip), vehicle: Klucel (hydroxypropylcellulose) (HPC).
The mark [5] stands for this setting: dose: 200.0 mg/kg/injection, schedule: Q01DX001 (ip), vehicle: Klucel (hydroxypropylcellulose) (HPC).
[6] abbreviates: dose: 200.0 mg/kg/injection, schedule: Q01DX005 (ip), vehicle: Klucel (hydroxypropylcellulose) (HPC).
Where [7] appears, read: dose: 200.0 mg/kg/injection, schedule: Q01DX009 (ip), vehicle: Klucel (hydroxypropylcellulose) (HPC).
Setting [8] is: dose: 200.0 mg/kg/injection, schedule: Q04DX003 (ip), vehicle: Klucel (hydroxypropylcellulose) (HPC).
[9] abbreviates: dose: 400.0 mg/kg/injection, schedule: Q01DX009 (ip), vehicle: Klucel (hydroxypropylcellulose) (HPC).
Where [10] appears, read: dose: 400.0 mg/kg/injection, schedule: Q04DX002 (ip), vehicle: Klucel (hydroxypropylcellulose) (HPC).
The mark [11] stands for this setting: dose: 400.0 mg/kg/injection, schedule: Q04DX003 (ip), vehicle: Klucel (hydroxypropylcellulose) (HPC).

The list shows only some results of the screen, not a fair sample: it gathers tests that were run many times, whatever their T/C, doses with no T/C, and many T/C values between a quarter and a half above the control. Further doses and runs are listed elsewhere. T/C gives the treated animals as a percentage of the vehicle group. Some doses have a count of surviving animals in place of a T/C: the source holds a T/C of zero for them, seemingly a mark for toxic or unscored doses. Some doses without a T/C left all or most animals alive at the check, yet need not have been tolerated: the source hardly ever lists a survival T/C far under the control, and the zero likely stands for such cases as well. Counts of survivors are from the toxicity check (mostly the fifth day) where no day follows; animals may have died later. Schedule codes are those of the source, read here as Q, the interval in days (D) or hours (H), X, the number of doses. Some doses were run more than once; the results are listed from low to high. For survival time, the PubChem record calls one and a half times the control and up active, and a quarter to a half above the control has no call in these data; cut-offs in other NCI protocols can differ. Some T/C values carry the count of animals alive at the toxicity check (mostly the fifth day); without a count, all were alive then. Counts like (3×) give the number of equal values in this list.

On to `NC(=S)N/N=C/c1ccc(O)cn1`, for which the T/C runs as follows: (dose: 25.0 mg/kg/injection, schedule: Q01DX005 (ip), vehicle: Klucel (hydroxypropylcellulose) (HPC)) 109, 117, 119, 122, 123, 131, 132, 134, 134 [5 of 6 alive], 137, 140 (2×), 144, 148, 148 [5 of 6 alive], 150 (2×), 154, 156, 161, 162, 163, 165, 166, 168, 170, 171 (2×), 173 (2×), 174, 176, 181, 182, 190 % of control; (dose: 25.0 mg/kg/injection, schedule: Q01DX009 (ip), vehicle: Klucel (hydroxypropylcellulose) (HPC)) 118, 119, 124, 128, 135, 148 (3×), 150, 151, 152, 157, 162 (2×), 163, 165, 165 [2 of 3 alive], 167, 169, 173, 176, 179, 180 [5 of 6 alive], 181, 184, 187, 189, 192, 193, 194, 195, 207, 209, 221, 226 % of control; (dose: 25.0 mg/kg/injection, schedule: Q04DX002 (ip), vehicle: Klucel (hydroxypropylcellulose) (HPC)) 135 % of control; (dose: 25.0 mg/kg/injection, schedule: Q04DX003 (ip), vehicle: Klucel (hydroxypropylcellulose) (HPC)) 133 % of control; (dose: 50.0 mg/kg/injection, schedule: Q01DX001 (ip), vehicle: Klucel (hydroxypropylcellulose) (HPC)) 97, 107, 109, 110 [2 of 3 alive], 112 (3×), 115, 120 (2×), 121 (2×), 122, 124 [5 of 6 alive], 128, 129 (2×), 133 (2×), 134 (2×), 136, 138, 142, 147, 148, 149, 162 % of control; (dose: 50.0 mg/kg/injection, schedule: Q01DX005 (ip), vehicle: Klucel (hydroxypropylcellulose) (HPC)) 117, 123, 125, 131, 134 [2 of 3 alive], 137 [5 of 6 alive], 142, 144, 148 (2×), 149 (2×), 154, 157, 159, 159 [4 of 6 alive], 160, 161, 165, 168, 172, 174 [5 of 6 alive], 176, 177, 178, 181, 187, 191, 193 (2×), 198, 203, 207, 210, 249 % of control. Also, the T/C was 135, 140 [2 of 3 alive], 150, 151, 153, 160, 164, 165, 166, 168, 172, 173 (2×), 175, 176, 187, 189, 190, 193, 196 (2×), 197, 198, 199 (2×), 201, 203, 205, 211, 213, 217, 225, 233, 245, 247, 257 % of control (dose: 50.0 mg/kg/injection, schedule: Q01DX009 (ip), vehicle: Klucel (hydroxypropylcellulose) (HPC)); 94, 113, 116, 118 (2×), 120, 121, 122, 125 (2×), 126, 128, 129 (2×), 130, 132, 133 (2×), 134, 139, 142, 146, 147, 150, 151, 152 (2×), 154, 159, 161 (2×), 171 (2×), 173 % of control (dose: 50.0 mg/kg/injection, schedule: Q04DX002 (ip), vehicle: Klucel (hydroxypropylcellulose) (HPC)); 108, 111, 115, 117, 117 [5 of 6 alive], 127, 130, 132, 133, 134 (2×), 135, 139, 141, 142 (3×), 146 (2×), 149 (3×), 150 (2×), 151, 155 (2×), 156 (2×), 158, 161, 168, 168 [4 of 6 alive], 175, 228 % of control under setting [1]; 93, 106, 112, 113, 120 (2×), 122, 123, 126, 128 (2×), 130 (2×), 133, 134 [5 of 6 alive], 135 (2×), 136, 137 (2×), 148, 151 (2×), 154, 155, 158, 159, 161 % of control (dose: 100.0 mg/kg/injection, schedule: Q01DX001 (ip), vehicle: Klucel (hydroxypropylcellulose) (HPC)); 102, 115, 117, 126, 128, 130, 139, 149, 153, 160, 166, 168, 174, 177 [2 of 3 alive], 179, 182, 190, 191, 192, 193, 195 [5 of 6 alive], 198, 201, 202 (2×), 212, 216, 220, 221, 224, 227, 229, 248, 250 % of control under setting [2]; 86 (2×), 87, 88, 103, 120, 142, 151, 162, 165, 168, 178, 179, 180, 181, 182, 189, 194, 195, 201, 203, 205 [5 of 6 alive], 207, 217, 220, 223, 226, 229, 236, 242, 243, 248, 267 % of control under setting [3]. The T/C (dose: 100.0 mg/kg/injection, schedule: Q04DX002 (ip), vehicle: Klucel (hydroxypropylcellulose) (HPC)) is 102, 113, 114, 115, 121 (2×), 122, 133, 134, 137, 138 (2×), 141, 142, 145, 146, 147 (2×), 148, 149, 150, 152, 154, 155 (2×), 160, 161 (2×), 164, 165, 169 (2×), 171 % of control (2×); the T/C under setting [4] is 103, 123, 129, 133, 139 (2×), 140, 141, 142, 144, 145 (2×), 146, 147 (3×), 151, 155, 159, 160, 161, 163 (2×), 164, 165, 166, 168, 174, 175, 178 (2×), 179, 180, 185, 186 % of control; the T/C under setting [5] is 121, 126, 127, 128, 129 (3×), 131, 136, 139 (2×), 140, 144 (2×), 145, 146, 148, 149, 151 (2×), 154, 155, 159, 161, 163, 165, 175 % of control; the T/C under setting [6] was 89, 93, 126, 154, 163, 168, 175, 188, 189 (2×), 193, 194, 218 % of control; the T/C under setting [7] is 86, 88 [5 of 6 alive], 92, 97, 98, 112, 137, 187 [5 of 6 alive], 193, 264, 271 % of control; the T/C (dose: 200.0 mg/kg/injection, schedule: Q04DX002 (ip), vehicle: Klucel (hydroxypropylcellulose) (HPC)) was 114, 120, 121, 125, 127, 132, 135, 137, 138, 141, 142, 143, 153 [5 of 6 alive], 154, 156, 158, 162 (2×), 165, 166 (2×), 167, 169 (2×), 173, 174 (2×), 175, 180, 181, 186 (2×), 193, 205 % of control. The T/C is, setting by setting: under setting [8], 110, 125, 129 (2×), 131, 146, 159, 160 (3×), 162, 163, 165 (2×), 166, 167, 169 (2×), 170, 171, 172, 175, 176, 180, 181, 182, 183, 185, 188, 189, 190 (2×), 204, 209 % of control (2×); (dose: 400.0 mg/kg/injection, schedule: Q01DX001 (ip), vehicle: Klucel (hydroxypropylcellulose) (HPC)) 134, 137, 138, 138 [5 of 6 alive], 139, 139 [5 of 6 alive], 141, 143, 146, 147, 149, 150, 151, 152, 154 (3×), 156, 157, 160 (3×), 163 (2×), 171, 188 % of control; under setting [10], 112, 115, 121, 128 (2×), 134, 141, 148, 151, 152, 154, 155, 156, 159, 160, 169, 171, 174 [5 of 6 alive], 175, 181, 188, 192 (2×), 194, 200, 204, 205, 217, 221 % of control; under setting [11], 87, 88, 94, 96, 129, 135, 136, 144, 149, 163, 164, 171, 174 (2×), 175, 176, 179, 180, 181, 190, 192, 194, 195, 200, 203, 215, 217, 218, 220, 223, 227 % of control. Further, the survivor count is 3 of 3 under setting [1]; 3 of 3 under setting [2]; 3 of 3 and 6 of 6 under setting [3]; 3 of 3 under setting [4]; 6 of 6 (dose: 150.0 mg/kg/injection, schedule: Q01DX009 (ip), vehicle: saline with Tween-80); 6 of 6 under setting [5]. Moreover, the survivor count reads like this: under setting [6], 2 of 3, 3 of 3, 6 of 6; under setting [7], 2 of 3, 4 of 6, 5 of 6, 3 of 3, 6 of 6; under setting [8], 3 of 3; (dose: 300.0 mg/kg/injection, schedule: Q01DX009 (ip), vehicle: saline with Tween-80) 6 of 6; under setting [9], 6 of 6; under setting [10], 3 of 3 and 6 of 6. Moreover, under setting [11], the survivor count is listed as 3 of 3.

Turning to `CC1=CC(C)(C)Nc2ccc(CSc3ccccc3)cc21`, the survivor count (dose: 400.0 mg/kg/injection, schedule: Q01DX009 (ip), vehicle: saline + alcohol) is reported as 0 of 6.

As to `NNCCC(=O)O`, the T/C reads like this: (dose: 264.0 mg/kg/injection, schedule: Q04DX003 (ip), vehicle: saline) 133 % of control; (dose: 400.0 mg/kg/injection, schedule: Q04DX003 (ip), vehicle: saline) 125 % of control.

Take `COC(=O)C1(N)CCCC1`: the survivor count (dose: 400.0 mg/kg/injection, schedule: Q01DX009 (ip), vehicle: saline) is given as 5 of 6.

Regarding `O=c1c2ccccc2cc2ccccn12`, the survivor count is 1 of 6 under setting [9] and 3 of 6 under setting [11].
